The other results are listed elsewhere or left out.
Key:
Test in all cases: log2 fold change, soluble protein after heating vs DMSO (PISA); higher = thermal stabilisation; K562 cells, 10 uM, 30 min; active = over 0.2 and 3.5 SD of the protein, either way, in both replicates (recomputed)
[1] = compound: C1=CC=C(C=C1)[C@H](COC2=CC3=C(C=C2)NC(=O)N3)NC(=O)C4=CC=CN(C4=O)CC5=CC(=C(C=C5)F)F
Method in brief: (§1)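 K562 cells (2×10^6 cells/mL) were treated with 10 μM compound for 30 min, and aliquots were heated for 3 min over 48°C-58°C. Pooled aliquots were extracted in PBS with 0.5% NP-40 at 4°C, and the supernatant after 21,000xg for 90 min was measured by TMTpro 16plex LC-MS/MS with channel sums equalised. Reported thermal stability, relative to control samples and from duplicates, is a log2 fold change.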

Sequences of proteins named here, by UniProt entry; tags and fusion partners are left off. A change or cut given only in a name is not applied to a line headed by its entry.
UniProt Q9BUZ4: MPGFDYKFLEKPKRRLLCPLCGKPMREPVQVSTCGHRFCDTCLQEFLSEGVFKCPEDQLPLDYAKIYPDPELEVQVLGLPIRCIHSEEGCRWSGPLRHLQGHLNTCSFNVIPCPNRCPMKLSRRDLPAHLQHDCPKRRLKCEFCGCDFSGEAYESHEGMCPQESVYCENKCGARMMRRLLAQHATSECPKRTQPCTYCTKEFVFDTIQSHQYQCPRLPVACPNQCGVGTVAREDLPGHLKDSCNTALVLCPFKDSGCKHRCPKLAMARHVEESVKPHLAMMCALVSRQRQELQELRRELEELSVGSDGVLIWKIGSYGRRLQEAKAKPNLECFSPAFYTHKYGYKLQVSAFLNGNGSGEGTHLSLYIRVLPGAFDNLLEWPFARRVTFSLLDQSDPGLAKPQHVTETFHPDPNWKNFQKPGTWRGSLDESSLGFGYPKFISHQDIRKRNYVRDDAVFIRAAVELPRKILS
UniProt P60174, whole entry, looked up: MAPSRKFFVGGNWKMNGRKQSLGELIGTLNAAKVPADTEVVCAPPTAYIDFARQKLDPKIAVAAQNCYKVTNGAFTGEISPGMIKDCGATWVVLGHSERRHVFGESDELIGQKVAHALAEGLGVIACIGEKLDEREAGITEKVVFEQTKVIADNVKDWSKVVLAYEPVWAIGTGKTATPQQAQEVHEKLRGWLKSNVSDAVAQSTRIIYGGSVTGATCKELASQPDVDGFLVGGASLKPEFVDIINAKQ
UniProt Q5JU69: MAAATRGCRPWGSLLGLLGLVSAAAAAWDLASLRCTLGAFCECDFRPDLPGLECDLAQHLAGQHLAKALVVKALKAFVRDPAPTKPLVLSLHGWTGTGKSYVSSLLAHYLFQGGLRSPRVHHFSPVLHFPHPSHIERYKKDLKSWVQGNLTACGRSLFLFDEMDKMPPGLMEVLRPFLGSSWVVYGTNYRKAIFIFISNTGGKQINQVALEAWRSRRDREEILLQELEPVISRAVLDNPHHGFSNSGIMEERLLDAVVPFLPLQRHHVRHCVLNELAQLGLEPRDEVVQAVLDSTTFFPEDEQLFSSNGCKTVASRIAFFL
UniProt Q8TBZ6: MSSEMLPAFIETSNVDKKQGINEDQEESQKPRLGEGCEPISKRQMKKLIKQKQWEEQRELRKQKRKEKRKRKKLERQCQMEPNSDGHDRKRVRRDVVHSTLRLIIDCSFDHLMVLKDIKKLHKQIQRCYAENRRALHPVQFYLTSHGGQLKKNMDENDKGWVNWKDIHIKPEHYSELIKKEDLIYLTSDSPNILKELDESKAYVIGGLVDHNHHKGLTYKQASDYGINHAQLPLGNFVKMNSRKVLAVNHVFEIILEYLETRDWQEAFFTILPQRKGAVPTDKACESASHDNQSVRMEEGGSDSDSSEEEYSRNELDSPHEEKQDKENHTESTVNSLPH
UniProt Q96F44: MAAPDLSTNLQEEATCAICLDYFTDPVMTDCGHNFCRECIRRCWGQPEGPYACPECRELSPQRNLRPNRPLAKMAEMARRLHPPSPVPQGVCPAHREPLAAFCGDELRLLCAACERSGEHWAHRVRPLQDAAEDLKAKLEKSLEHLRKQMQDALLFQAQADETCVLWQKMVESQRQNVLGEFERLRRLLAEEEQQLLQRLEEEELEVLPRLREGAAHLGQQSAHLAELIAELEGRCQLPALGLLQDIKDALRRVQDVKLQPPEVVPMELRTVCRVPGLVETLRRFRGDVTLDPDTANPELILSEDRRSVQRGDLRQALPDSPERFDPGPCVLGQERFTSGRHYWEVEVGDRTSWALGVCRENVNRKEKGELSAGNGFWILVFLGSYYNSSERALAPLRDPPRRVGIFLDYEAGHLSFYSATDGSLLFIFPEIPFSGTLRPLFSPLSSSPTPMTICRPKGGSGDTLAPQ
UniProt P07951, whole entry, looked up: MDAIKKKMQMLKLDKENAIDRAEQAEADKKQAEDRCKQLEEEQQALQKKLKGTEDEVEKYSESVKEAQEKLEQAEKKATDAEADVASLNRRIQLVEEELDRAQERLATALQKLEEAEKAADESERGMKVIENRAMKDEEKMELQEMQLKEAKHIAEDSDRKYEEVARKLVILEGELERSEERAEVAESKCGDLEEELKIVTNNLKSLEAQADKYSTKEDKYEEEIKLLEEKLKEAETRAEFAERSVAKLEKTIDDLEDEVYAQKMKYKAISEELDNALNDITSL
UniProt Q9BSV6: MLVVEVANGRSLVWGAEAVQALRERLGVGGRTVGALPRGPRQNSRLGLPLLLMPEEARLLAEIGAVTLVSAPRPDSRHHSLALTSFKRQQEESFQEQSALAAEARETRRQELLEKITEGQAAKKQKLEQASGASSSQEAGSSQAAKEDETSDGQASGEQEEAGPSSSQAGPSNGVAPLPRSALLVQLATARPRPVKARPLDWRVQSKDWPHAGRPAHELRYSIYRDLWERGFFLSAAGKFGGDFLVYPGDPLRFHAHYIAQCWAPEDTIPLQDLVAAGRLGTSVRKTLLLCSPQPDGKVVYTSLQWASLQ
UniProt O94842: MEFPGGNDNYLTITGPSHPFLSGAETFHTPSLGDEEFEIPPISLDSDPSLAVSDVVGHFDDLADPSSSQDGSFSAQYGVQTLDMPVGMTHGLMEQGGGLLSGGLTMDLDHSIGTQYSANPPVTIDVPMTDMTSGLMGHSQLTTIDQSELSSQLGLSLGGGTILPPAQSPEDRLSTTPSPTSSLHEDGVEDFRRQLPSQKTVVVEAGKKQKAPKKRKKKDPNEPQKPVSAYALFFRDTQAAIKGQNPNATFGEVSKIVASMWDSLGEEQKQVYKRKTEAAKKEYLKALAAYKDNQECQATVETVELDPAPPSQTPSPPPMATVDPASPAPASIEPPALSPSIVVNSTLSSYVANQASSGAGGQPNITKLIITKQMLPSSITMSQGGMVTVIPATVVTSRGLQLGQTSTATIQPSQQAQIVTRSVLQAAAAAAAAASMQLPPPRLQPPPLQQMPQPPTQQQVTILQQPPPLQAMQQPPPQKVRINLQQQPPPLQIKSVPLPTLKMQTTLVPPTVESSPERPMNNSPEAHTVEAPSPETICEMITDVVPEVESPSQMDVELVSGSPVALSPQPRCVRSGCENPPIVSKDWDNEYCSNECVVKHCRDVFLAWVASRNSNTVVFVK
UniProt P11388: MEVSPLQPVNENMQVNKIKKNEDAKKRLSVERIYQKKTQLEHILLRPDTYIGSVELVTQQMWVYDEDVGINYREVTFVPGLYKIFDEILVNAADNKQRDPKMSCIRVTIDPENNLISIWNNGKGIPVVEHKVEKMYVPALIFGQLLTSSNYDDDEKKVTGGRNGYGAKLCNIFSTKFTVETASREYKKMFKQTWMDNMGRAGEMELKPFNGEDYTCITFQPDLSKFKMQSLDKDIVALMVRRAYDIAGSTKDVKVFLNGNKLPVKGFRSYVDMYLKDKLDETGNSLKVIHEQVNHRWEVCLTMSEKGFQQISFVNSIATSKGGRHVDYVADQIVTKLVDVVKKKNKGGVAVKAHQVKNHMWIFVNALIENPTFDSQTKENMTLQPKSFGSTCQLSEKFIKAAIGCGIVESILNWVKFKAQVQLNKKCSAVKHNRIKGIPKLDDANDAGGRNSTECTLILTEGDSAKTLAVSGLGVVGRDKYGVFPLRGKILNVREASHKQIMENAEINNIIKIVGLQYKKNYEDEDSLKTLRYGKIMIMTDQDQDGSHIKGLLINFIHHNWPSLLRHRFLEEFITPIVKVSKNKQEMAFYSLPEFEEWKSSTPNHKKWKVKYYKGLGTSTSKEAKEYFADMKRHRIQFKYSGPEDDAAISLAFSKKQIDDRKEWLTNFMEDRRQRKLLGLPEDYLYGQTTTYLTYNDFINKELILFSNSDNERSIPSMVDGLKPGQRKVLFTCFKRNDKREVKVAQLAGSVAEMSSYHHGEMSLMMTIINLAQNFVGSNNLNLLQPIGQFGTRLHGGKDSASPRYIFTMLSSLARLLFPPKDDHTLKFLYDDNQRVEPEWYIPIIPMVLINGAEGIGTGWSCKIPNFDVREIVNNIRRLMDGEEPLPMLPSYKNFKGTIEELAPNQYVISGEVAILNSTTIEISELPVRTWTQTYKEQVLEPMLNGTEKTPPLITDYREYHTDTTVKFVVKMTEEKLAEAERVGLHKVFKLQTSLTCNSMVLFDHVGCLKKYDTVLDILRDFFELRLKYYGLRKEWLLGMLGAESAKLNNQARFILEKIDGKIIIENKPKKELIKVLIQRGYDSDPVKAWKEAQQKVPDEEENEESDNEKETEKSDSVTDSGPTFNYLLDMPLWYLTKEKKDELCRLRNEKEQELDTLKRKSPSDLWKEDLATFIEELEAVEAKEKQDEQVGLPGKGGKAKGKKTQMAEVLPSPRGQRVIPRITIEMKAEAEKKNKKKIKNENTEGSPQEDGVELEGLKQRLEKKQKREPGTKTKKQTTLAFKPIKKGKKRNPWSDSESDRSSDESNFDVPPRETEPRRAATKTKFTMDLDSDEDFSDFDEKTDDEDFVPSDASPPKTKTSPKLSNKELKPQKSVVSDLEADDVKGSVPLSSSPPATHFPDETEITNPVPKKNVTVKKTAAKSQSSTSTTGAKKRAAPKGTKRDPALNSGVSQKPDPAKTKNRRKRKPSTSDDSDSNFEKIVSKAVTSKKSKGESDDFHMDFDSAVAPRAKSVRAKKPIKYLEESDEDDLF
UniProt Q96Q05, whole entry, looked up: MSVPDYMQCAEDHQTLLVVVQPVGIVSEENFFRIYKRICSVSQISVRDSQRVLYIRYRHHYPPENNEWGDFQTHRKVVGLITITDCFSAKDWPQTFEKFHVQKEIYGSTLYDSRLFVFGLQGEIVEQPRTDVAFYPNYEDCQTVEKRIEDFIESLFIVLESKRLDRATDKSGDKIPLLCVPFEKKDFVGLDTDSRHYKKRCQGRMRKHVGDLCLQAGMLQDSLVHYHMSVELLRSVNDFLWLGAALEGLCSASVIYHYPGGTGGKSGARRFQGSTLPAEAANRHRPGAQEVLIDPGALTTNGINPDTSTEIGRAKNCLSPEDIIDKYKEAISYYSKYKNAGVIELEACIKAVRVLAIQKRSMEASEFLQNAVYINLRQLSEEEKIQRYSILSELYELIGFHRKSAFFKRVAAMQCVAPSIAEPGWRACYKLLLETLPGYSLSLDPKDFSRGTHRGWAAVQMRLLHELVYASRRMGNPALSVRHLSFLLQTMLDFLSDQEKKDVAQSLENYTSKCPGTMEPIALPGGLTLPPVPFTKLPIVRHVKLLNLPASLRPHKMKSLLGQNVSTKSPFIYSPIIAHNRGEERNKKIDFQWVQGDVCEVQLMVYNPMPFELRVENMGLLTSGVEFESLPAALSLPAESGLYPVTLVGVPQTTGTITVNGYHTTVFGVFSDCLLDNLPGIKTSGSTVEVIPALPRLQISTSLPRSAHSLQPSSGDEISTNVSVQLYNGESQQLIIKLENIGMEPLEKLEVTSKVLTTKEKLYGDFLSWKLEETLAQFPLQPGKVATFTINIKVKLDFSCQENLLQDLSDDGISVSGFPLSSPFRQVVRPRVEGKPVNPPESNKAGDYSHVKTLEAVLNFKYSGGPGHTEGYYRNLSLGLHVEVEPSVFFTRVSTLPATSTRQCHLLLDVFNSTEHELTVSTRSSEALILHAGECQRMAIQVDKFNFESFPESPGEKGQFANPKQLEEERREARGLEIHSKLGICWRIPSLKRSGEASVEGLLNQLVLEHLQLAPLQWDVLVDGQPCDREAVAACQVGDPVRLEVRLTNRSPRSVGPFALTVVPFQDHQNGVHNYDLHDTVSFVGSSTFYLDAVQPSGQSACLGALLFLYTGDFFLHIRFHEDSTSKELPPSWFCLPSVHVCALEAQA
UniProt Q9Y3Q8: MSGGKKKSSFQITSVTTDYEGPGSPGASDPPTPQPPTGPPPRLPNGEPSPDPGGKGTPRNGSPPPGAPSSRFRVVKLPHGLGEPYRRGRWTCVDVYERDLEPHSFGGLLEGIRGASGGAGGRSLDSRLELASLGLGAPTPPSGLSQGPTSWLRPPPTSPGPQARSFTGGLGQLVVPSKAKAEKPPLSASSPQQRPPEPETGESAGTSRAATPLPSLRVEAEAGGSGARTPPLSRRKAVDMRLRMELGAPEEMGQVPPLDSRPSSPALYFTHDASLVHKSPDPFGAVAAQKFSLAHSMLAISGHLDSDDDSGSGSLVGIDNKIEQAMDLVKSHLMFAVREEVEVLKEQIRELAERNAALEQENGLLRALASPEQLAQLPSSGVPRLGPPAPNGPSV
UniProt P06753, whole entry, looked up: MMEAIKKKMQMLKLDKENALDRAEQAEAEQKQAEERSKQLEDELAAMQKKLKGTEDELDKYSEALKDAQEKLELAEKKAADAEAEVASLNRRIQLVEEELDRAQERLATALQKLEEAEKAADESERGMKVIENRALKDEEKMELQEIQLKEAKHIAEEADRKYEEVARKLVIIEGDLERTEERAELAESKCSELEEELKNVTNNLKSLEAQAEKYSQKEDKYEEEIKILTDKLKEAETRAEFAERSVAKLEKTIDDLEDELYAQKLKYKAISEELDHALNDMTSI
UniProt Q8WW01: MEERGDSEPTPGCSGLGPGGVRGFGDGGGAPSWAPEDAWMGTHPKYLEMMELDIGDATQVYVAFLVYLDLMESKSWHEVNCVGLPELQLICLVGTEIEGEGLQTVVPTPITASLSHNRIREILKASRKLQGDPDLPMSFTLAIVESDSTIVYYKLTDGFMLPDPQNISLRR

[2] = compound: CC1=C(SC2=C1C(=N[C@H](C3=NN=C(N32)C)CC(=O)N)C4=CC=C(C=C4)Cl)C
Method in brief: as §1

[3] = compound: CC1=C2C(=CC=C1)N=C(N(C2=O)C3=CC=CC=C3C)CN4C=NC5=C(N=CN=C54)N
Method in brief: as §1

[4] = compound: Cc1sc2c(c1C)C(c1ccc(Cl)cc1)=N[C@@H](CC(=O)OC(C)(C)C)c1nnc(C)n1-2
Method in brief: as §1

[5] = compound: c1ccc([C@@H]2C[C@H]2NC2CCNCC2)cc1
Method in brief: as §1

Measured: log2 fold change

TOLLIP (UniProt Q9H0E2)
inactive: [1] 0.003 | [2] 0.101 | [3] 0.059 | [4] -0.049 | [5] -0.045

TOR1A (UniProt O14656)
inactive: [1] 0.015 | [2] 0.052 | [3] 0.029 | [4] -0.023 | [5] 0.046

TRAF4 (UniProt Q9BUZ4)
inactive: [1] -0.085 | [2] -0.105 | [3] 0.03 | [4] 0.106 | [5] 0.062

TRAPPC8 (UniProt Q9Y2L5)
inactive: [1] -0.01 | [2] 0.05 | [3] 0.046 | [4] 0.012 | [5] -0.018

TPRKB (UniProt Q9Y3C4)
inactive: [1] -0.006 | [2] 0.016 | [3] 0.066 | [4] -0.048 | [5] 0.009

TPI1 (UniProt P60174)
inactive: [1] 0.001 | [2] 0.026 | [3] 0.027 | [4] -0.003 | [5] 0.008

TOR2A (UniProt Q5JU69)
inactive: [1] -0.032 | [2] 0.02 | [3] 0.104 | [4] -0.134 | [5] -0.08

TOMM40 (UniProt O96008)
inactive: [1] -0.008 | [2] 0.01 | [3] -0.032 | [4] -0.022 | [5] 0.011

TRMT10A (UniProt Q8TBZ6)
inactive: [1] -0.038 | [2] 0.028 | [3] 0.006 | [4] -0.033 | [5] -0.055

Quoted at random: 2 entries already listed
TOMM40 (UniProt O96008)
inactive: [1] -0.008 | [2] 0.01 | [3] -0.032 | [4] -0.022 | [5] 0.011

TRMT10A (UniProt Q8TBZ6)
inactive: [1] -0.038 | [2] 0.028 | [3] 0.006 | [4] -0.033 | [5] -0.055

Going on with the list:

TRIM11 (UniProt Q96F44)
inactive: [1] -0.096 | [2] -0.039 | [3] 0.051 | [4] 0.03 | [5] 0.004

TPM2 (UniProt P07951)
inactive: [1] -0.041 | [2] -0.117 | [3] -0.195 | [4] -0.017 | [5] 0.014

TSEN34 (UniProt Q9BSV6)
inactive: [1] -0.034 | [2] 0.056 | [3] 0.19 | [4] 0.052 | [5] -0.066

TNPO3 (UniProt Q9Y5L0)
inactive: [1] -0.035 | [2] 0.063 | [3] 0.014 | [4] -0.022 | [5] -0.007

TOX4 (UniProt O94842)
inactive: [1] 0.071 | [2] -0.116 | [3] -0.08 | [4] 0.124 | [5] 0.098

TPM4 isoform 2 (UniProt P67936)
inactive: [1] -0.024 | [2] -0.048 | [3] -0.196 | [4] -0.028 | [5] 0.018

TOP2A isoform 4 (UniProt P11388)
inactive: [1] 0.157 | [2] -0.322 | [3] -0.703 | [4] 0.252 | [5] 0.002

TRMT6 (UniProt Q9UJA5)
inactive: [1] 0.089 | [2] -0.054 | [3] -0.171 | [4] 0.188 | [5] 0.07

TRAPPC2L (UniProt Q9UL33)
inactive: [1] -0.014 | [2] -0.044 | [3] -0.058 | [4] -0.063 | [5] 0.038

TRAPPC9 isoform 2 (UniProt Q96Q05)
inactive: [1] -0.001 | [2] 0.001 | [3] 0.062 | [4] 0.005 | [5] -0.01

TPD52L1 (UniProt Q16890)
inactive: [1] 0.094 | [2] -0.021 | [3] 0.021 | [4] -0.064 | [5] 0.014

TSC22D4 (UniProt Q9Y3Q8)
inactive: [1] -0.002 | [2] 0.037 | [3] 0.01 | [4] -0.016 | [5] -0.037

TPM3 isoform 2 (UniProt P06753)
inactive: [1] -0.043 | [2] -0.01 | [3] 0.018 | [4] -0.016 | [5] 0.013

TSEN15 (UniProt Q8WW01)
inactive: [1] 0.018 | [2] 0.218 | [3] 0.135 | [4] -0.105 | [5] -0.064

TPD52L2 isoform 7 (UniProt O43399)
inactive: [1] 0.017 | [2] 0.03 | [3] 0.001 | [4] 0.006 | [5] 0.047

Reference: the supplement of paper PMC10849652
